Values of other authors in patent publication US10441577B2, “Medicament for treatment of liver cancer” (HELMHOLTZ ZENTRUM FUER INFEKTIONSFORSCHUNG, priority 2011, dated 2019).
The structures given here were assigned with low confidence; some may be wrong.

By UniProt entry, the sequences of proteins in these tests, tags left out.
UniProt Q16539, whole entry: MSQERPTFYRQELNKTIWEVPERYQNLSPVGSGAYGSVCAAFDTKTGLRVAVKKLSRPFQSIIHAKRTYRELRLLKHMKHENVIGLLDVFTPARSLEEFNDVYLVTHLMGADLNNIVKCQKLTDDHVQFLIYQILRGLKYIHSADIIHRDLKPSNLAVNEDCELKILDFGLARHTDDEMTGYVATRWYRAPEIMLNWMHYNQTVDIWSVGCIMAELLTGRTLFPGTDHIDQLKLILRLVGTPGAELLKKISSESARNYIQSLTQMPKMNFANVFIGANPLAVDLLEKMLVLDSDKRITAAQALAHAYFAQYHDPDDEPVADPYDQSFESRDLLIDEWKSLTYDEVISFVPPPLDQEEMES

Target: Mapk14 (Homo sapiens, UniProt Q16539)
Conditions: read-out: IC50 for Mapk14; cited from earlier work

SMILES: CN(C)C(=O)C(=O)c1cn(C)c2cc(Cl)c(C(=O)N3CCC(Cc4ccc(F)cc4)CC3)cc12 [SX 011]
- IC50: 9 nM
